Consider one molecule from patent US20080305989A1.

For the test, the target named is 125I-insulin. Kind of test: condition: up to 1 mg per well of TD-1; ~30,000 cpm 125I-insulin per well; 125I-insulin added to ELISA wells precoated with TD-1, bound radioactivity counted after washing. For orientation: An ELISA detects its analyte on a solid surface through an enzyme-linked reagent.

These are yes or no findings as the source states them, for the method shown.

Regarding ACSSSPSKHCG [TD-1 peptide (…)], the binding entry is “no binding”.
